Reference: article PMC12164954
These are yes or no findings as the source states them, for the method shown. For part of these data: A result given as binding can be weak or reduced; the word gives no strength. Tags and fused reporters may be left off the sequences shown.

B1: SnRK2.2 fused with activation domain (AD) (enzyme, UniProt Q39192 1-362)
chain: MDPATNSPIMPIDLPIMHDSDRYDFVKDIGSGNFGVARLMTDRVTKELVAVKYIERGEKIDENVQREIINHRSLRHPNIVRFKEVILTPSHLAIVMEYAAGGELYERICNAGRFSEDEARFFFQQLISGVSYCHAMQICHRDLKLENTLLDGSPAPRLKICDFGYSKSSVLHSQPKSTVGTPAYIAPEILLRQEYDGKLADVWSCGVTLYVMLVGAYPFEDPQEPRDYRKTIQRILSVTYSIPEDLHLSPECRHLISRIFVADPATRITIPEITSDKWFLKNLPGDLMDENRMGSQFQEPEQPMQSLDTIMQIISEATIPTVRNRCLDDFMADNLDLDDDMDDFDSESEIDVDSSGEIVYAL
B2: SnRK2.3 fused with activation domain (AD) (enzyme, UniProt Q39193 1-361)
chain: MDRAPVTTGPLDMPIMHDSDRYDFVKDIGSGNFGVARLMRDKLTKELVAVKYIERGDKIDENVQREIINHRSLRHPNIVRFKEVILTPTHLAIIMEYASGGELYERICNAGRFSEDEARFFFQQLLSGVSYCHSMQICHRDLKLENTLLDGSPAPRLKICDFGYSKSSVLHSQPKSTVGTPAYIAPEVLLRQEYDGKIADVWSCGVTLYVMLVGAYPFEDPEEPRDYRKTIQRILSVKYSIPDDIRISPECCHLISRIFVADPATRISIPEIKTHSWFLKNLPADLMNESNTGSQFQEPEQPMQSLDTIMQIISEATIPAVRNRCLDDFMTDNLDLDDDMDDFDSESEIDIDSSGEIVYAL
B3: ADA2b fused with activation domain (AD) (protein, UniProt Q9ATB4 1-487)
chain: MGRSRGNFQNFEDPTQRTRKKKNAANVENFESTSLVPGAEGGGKYNCDYCQKDITGKIRIKCAVCPDFDLCIECMSVGAEITPHKCDHPYRVMGNLTFPLICPDWSADDEMLLLEGLEIYGLGNWAEVAEHVGTKSKEQCLEHYRNIYLNSPFFPLPDMSHVAGKNRKELQAMAKGRIDDKKAEQNMKEEYPFSPPKVKVEDTQKESFVDRSFGGKKPVSTSVNNSLVELSNYNQKREEFDPEYDNDAEQLLAEMEFKENDTPEEHELKLRVLRIYSKRLDERKRRKEFIIERNLLYPNPFEKDLSQEEKVQCRRLDVFMRFHSKEEHDELLRNVVSEYRMVKRLKDLKEAQVAGCRSTAEAERYLGRKRKRENEEGMNRGKESGQFGQIAGEMGSRPPVQASSSYVNDLDLIGFTESQLLSESEKRLCSEVKLVPPVYLQMQQVMSHEIFKGNVTKKSDAYSLFKIDPTKVDRVYDMLVKKGIAQL
B4: RAD51 (protein, UniProt P94102 1-342)
chain: MTTMEQRRNQNAVQQQDDEETQHGPFPVEQLQAAGIASVDVKKLRDAGLCTVEGVAYTPRKDLLQIKGISDAKVDKIVEAASKLVPLGFTSASQLHAQRQEIIQITSGSRELDKVLEGGIETGSITELYGEFRSGKTQLCHTLCVTCQLPMDQGGGEGKAMYIDAEGTFRPQRLLQIADRFGLNGADVLENVAYARAYNTDHQSRLLLEAASMMIETRFALLIVDSATALYRTDFSGRGELSARQMHLAKFLRSLQKLADEFGVAVVITNQVVAQVDGSALFAGPQFKPIGGNIMAHATTTRLALRKGRAEERICKVISSPCLPEAEARFQISTEGVTDCKD
B5: SOG1 (protein, UniProt Q6NQK2 1-449)
chain: MAGRSWLIDSNRIATKIMSASASSDPRQVVWKSNPSRHCPKCQHVIDNSDVVDDWPGLPRGVKFDPSDPEIIWHLLAKSGLSGLSSHPFIDEFIPTVNQDDGICYTHPKNLPGVKSDGTVSHFFHKAIKAYSTGTRKRRKIHDDDFGDVRWHKTGRTKPVVLDGVQRGCKKIMVLYGGKAVKTNWVMHQYHLGIEEDEKEGDYVVSKIFYQQPQQLVVKRGDKAEQEVSEDIFAAVTPTADPVTPKLATPEPRNAVRICSDSHIASDYVTPSDYVSAHEVSLAETSEVMCMEDEVQSIQPNHERPSSGPELEHGLENGAKEMLDDKEEQEKDRDNENQGEEDPTWFDSGSQFILNSQQLVEALSLCDDLLGSQDREENTNSGSLKDKQPCIADYAHLGPEDFKRDLEECQKIVLDPSNIELDTPPEFRLSQLEFGSQDSFLAWGTGKTD
B6: SMC5 (protein, UniProt Q9LFS8 1-1053)
chain: MSERRAKRPKISRGEDDFLPGNIIEIELHNFMTFNHLVCKPGSRLNLVIGPNGSGKSSLVCAIALCLGGEPQLLGRATSVGAYVKRGEDSGYVKISLRGNTREENLTIFRKIDTRNKSEWMFNGSTVSKKDIVEIIQKFNIQVNNLTQFLPQDRVCEFAKLTPVQLLEETEKAVGDPQLPVHHRALVEKSRDLKQLERAVAKNGETLNQLKALVDEQEKDVERVRQRELFLTKVDSMKKKLPWLKYDMKKAEYMDAKKRMKEAEKKLDEAAKNLNSMKEPIEKQKKEKAETDSKCKKVKNLMDANGRNRCHLLEKEDEADARVVATYKELEELKKQEEHRQERILKATEDLVAAERELQNLPVYERPVAKLEELSSQVTELHHSINGKKNQKEDNEKLLSQKRYTLRQCVDKLKDMENANNKLLKALANSGADRIFDAYQWVQQNRHEFKREVYGPVLVEVNVPNRENACFLEGHVSFYIWKSFITQDPEDRDLLVKNLKRFDVPVLNYVGNSGNQKAPFHISDQMRSLGIHARLDQIFDAPDAVKEVLNSQFGLEDSYIGSKITDQRAEEVYKLGIKDFWTPDNHYRWSSSRYGGHSSASVDSVYQSRLLLCGVDVGELEKLRSRKEELEDSILFMEETHKSLQTEQRRLEEEAAKLHKEREEIVNVSYLEKKKRRELESRYQQRKTKLESLEQEEDMDASVAKLIDQASRANADRYTYAINLKKLLVEAVAHKWSYAEKHMASIELERKIRESEINIKQYEKTAQQLSLAVEYCKKEVEGKQQRLATAKRDAESVATITPELKKEFMEMPTTVEELEAAIQDNLSQANSILFINENILQEYEHRQSQIYTISTKLETDKRDLSICMKEIDSLKEKWLPTLRQLVGQINETFSHNFQEMAVAGEVSLDERDTDFDQYGIHIKVKFRESGQLQVLSSHHQSGGERSVSTILYLVSLQDLTNCPFRVVDEINQGMDPINERKMFQQLVRAASQPNTPQCFLLTPKLLPELEYSEACSILNIMNGPYIAEPSKVWSLGDSWGSLNRRRTEASQCS
B7: CDC5 (protein, UniProt P92948 1-844)
chain: MRIMIKGGVWKNTEDEILKAAVMKYGKNQWARISSLLVRKSAKQCKARWYEWLDPSIKKTEWTREEDEKLLHLAKLLPTQWRTIAPIVGRTPSQCLERYEKLLDAACTKDENYDAADDPRKLRPGEIDPNPEAKPARPDPVDMDEDEKEMLSEARARLANTRGKKAKRKAREKQLEEARRLASLQKRRELKAAGIDGRHRKRKRKGIDYNAEIPFEKRAPAGFYDTADEDRPADQVKFPTTIEELEGKRRADVEAHLRKQDVARNKIAQRQDAPAAILQANKLNDPEVVRKRSKLMLPPPQISDHELEEIAKMGYASDLLAENEELTEGSAATRALLANYSQTPRQGMTPMRTPQRTPAGKGDAIMMEAENLARLRDSQTPLLGGENPELHPSDFTGVTPRKKEIQTPNPMLTPSMTPGGAGLTPRIGLTPSRDGSSFSMTPKGTPFRDELHINEDMDMHESAKLERQRREEARRSLRSGLTGLPQPKNEYQIVAQPPPEESEEPEEKIEEDMSDRIAREKAEEEARQQALLKKRSKVLQRDLPRPPAASLAVIRNSLLSADGDKSSVVPPTPIEVADKMVREELLQLLEHDNAKYPLDDKAEKKKGAKNRTNRSASQVLAIDDFDENELQEADKMIKEEGKFLCVSMGHENKTLDDFVEAHNTCVNDLMYFPTRSAYELSSVAGNADKVAAFQEEMENVRKKMEEDEKKAEHMKAKYKTYTKGHERRAETVWTQIEATLKQAEIGGTEVECFKALKRQEEMAASFRKKNLQEEVIKQKETESKLQTRYGNMLAMVEKAEEIMVGFRAQALKKQEDVEDSHKLKEAKLATGEEEDIAIAMEASA
B8: IDN2 (protein, UniProt Q8VZ79 1-647)
chain: MGSTVILSSDDEDSDISESEMDEYGDKMYLNLKGGKLKVRLSPQAFICPYCPNKKKTSFQYKDLLQHASGVGNSNSDKRSAKEKASHLALVKYLQQDLADSASEAEPSSKRQKNGNPIQDCDHDEKLVYPWKGIVVNIPTTKAQDGRSAGESGSKLRDEYILRGFNPTRVRPLWNYLGHSGTAIVEFNKDWNGLHNGLLFDKAYTVDGHGKKDWLKKDGPKLGLYGWIARADDYNGNNIIGENLRKTGDLKTIAELTEEEARKQELLVQNLRQLVEEKKKDMKEIEELCSVKSEELNQLMEEKEKNQQKHYRELNAIQERTMSHIQKIVDDHEKLKRLLESERKKLEIKCNELAKREVHNGTERMKLSEDLEQNASKNSSLELAAMEQQKADEEVKKLAEDQRRQKEELHEKIIRLERQRDQKQAIELEVEQLKGQLNVMKHMASDGDAEVVKEVDIIFKDLGEKEAQLADLDKFNQTLILRERRTNDELQEAHKELVNIMKEWNTNIGVKRMGELVTKPFVDAMQQKYCQQDVEDRAVEVLQLWEHYLKDSDWHPFKRVKLENEDREVEVIDDRDEKLRELKADLGDGPYNAVTKALLEINEYNPSGRYITTELWNFKADKKATLEEGVTCLLDQWEKAKRKRGMA

Columns and labels:
Experiment in all cases: two-hybrid; SnRK2s and ADA2b fused with activation domain (AD, pGADT7), CLC2 fused with binding domain (BD, pGBKT7); growth on SD-L-W-H medium containing 30 mM 3-AT
[1] = molecular target: CLC1 (Arabidopsis thaliana)
[2] = molecular target: CLC3 (Arabidopsis thaliana)
[3] = molecular target: clathrin light chain 2 (CLC2) fused with binding domain (BD) (Arabidopsis thaliana)

Row | binding [1] | binding [2] | binding [3] | Binder
1 | no binding | no binding | binds | B1
2 | no binding | no binding | binds | B2
3 |  |  | binds | B3
4 |  |  | no binding | B4
5 |  |  | no binding | B5
6 |  |  | no binding | B6
7 |  |  | no binding | B7
8 |  |  | no binding | B8
